The exact form of at least one protein or probe is not confirmed. At least one verdict rests on a figure or table, not on a statement of the authors.

The test system of the data set is thrombin. Description: liquid crystal droplet aggregation (optical microscopy). The conditions noted are these: 5'-C18H37 phosphate on strand 2 (DNA-C18), adsorbed on 5CB droplets, PBS pH 7.4 (2 mM KH2PO4, 8 mM Na2HPO4, 136 mM NaCl, 2.6 mM KCl), commercial protein, folded or branched DNA.

“AGTCCGTGGTAGGGCAGGTTGGGGTGACTTACACATCTACTTCACCA / TGGTGAAGTAGATGTGTA [Thrombin aptamer 1 hybridized to DNA-C18]”: the binding result (with thrombin aptamer 2 on droplets, 1, 5, 10 uM thrombin) was “binds”.
Take “GGTTGGTGTGGTTGGTACACATCTACTTCACCA / TGGTGAAGTAGATGTGTA [Thrombin aptamer 2 hybridized to DNA-C18]”: the binding result (with thrombin aptamer 1 on droplets, 1, 5, 10 uM thrombin) is recorded as “binds”.

Source of the values: paper PMC9138460.
